Data reported in PubChem BioAssay AID248 (DTP/NCI, 2004).
The list does not hold the whole screen: it is rich in T/C values a quarter to a half above the control, in often repeated tests (any T/C) and in doses without a T/C. Further doses and runs are listed elsewhere. T/C: endpoint of the treated group in % of that of the vehicle group. Some entries give survivors of the animals treated and no T/C: the source holds a T/C of zero for them, seemingly a mark for toxic or unscored doses. Some survivor counts are full or nearly so, which does not show that the dose was tolerated: survival well below the control is almost never listed, so the zero probably covers shortened survival too. Survivors were counted at the toxicity check, usually on the fifth day, unless a day is given; later deaths do not show. Schedules are NCI's codes, taken here to give the interval after Q, in days (D) or hours (H), and the number of doses after X. Some structures stand for samples that the source files as different forms (salt, stereo form or complex); doses refer to the form tested. Some entries hold several experiments; the values are given in rising order. Where survival is the endpoint, this PubChem deposit counts one and a half times the control or more as active, and values a quarter to a half above the control carry no call in these data; other NCI protocols may use other cut-offs. Some T/C values are followed by the survivors on the day toxicity was checked, most often the fifth; where none is given, no animal had died by that day.

Tested on: L1210 leukemia ip in BDF1 mice, survival T/C
Assay: NCI In Vivo Anticancer Drug Screen. Data for tumor model L1210 Leukemia (intraperitoneal) in B6D2F1 (BDF1) mice
Conditions: T/C endpoint: mean survival time, higher T/C = longer survival
[1] = dose: 400.0 mg/kg/injection, schedule: Q04DX003 (ip), vehicle: saline with Tween-80
[2] = dose: 200.0 mg/kg/injection, schedule: Q01DX001 (ip), vehicle: saline
[3] = dose: 400.0 mg/kg/injection, schedule: Q01DX001 (ip), vehicle: saline
[4] = dose: 100.0 mg/kg/injection, schedule: Q01DX009 (ip), vehicle: saline with Tween-80
[5] = dose: 200.0 mg/kg/injection, schedule: Q01DX009 (ip), vehicle: saline with Tween-80
[6] = dose: 50.0 mg/kg/injection, schedule: Q01DX009 (ip), vehicle: other
[7] = dose: 200.0 mg/kg/injection, schedule: Q01DX001 (ip), vehicle: carboxymethylcellulose (CMC)
[8] = dose: 300.0 mg/kg/injection, schedule: Q01DX001 (ip), vehicle: saline
[9] = dose: 400.0 mg/kg/injection, schedule: Q01DX001 (ip), vehicle: carboxymethylcellulose (CMC)
[10] = dose: 200.0 mg/kg/injection, schedule: Q04DX003 (ip), vehicle: saline
[11] = dose: 400.0 mg/kg/injection, schedule: Q04DX003 (ip), vehicle: saline
[12] = dose: 200.0 mg/kg/injection, schedule: Q01DX001 (ip), vehicle: Klucel (hydroxypropylcellulose) (HPC)
[13] = dose: 80.0 mg/kg/injection, schedule: Q04DX003 (ip), vehicle: Klucel (hydroxypropylcellulose) (HPC)
[14] = dose: 400.0 mg/kg/injection, schedule: Q04DX003 (ip), vehicle: Klucel (hydroxypropylcellulose) (HPC)
[15] = dose: 400.0 mg/kg/injection, schedule: Q01DX001 (ip), vehicle: Klucel (hydroxypropylcellulose) (HPC)

**Q.** What does the source list for Clc1nc(Cl)n2c(Cl)cncc12?
**A.** survivor count (dose: 100.0 mg/kg/injection, schedule: Q04DX003 (ip), vehicle: saline with Tween-80): 4 of 6; survivor count (dose: 200.0 mg/kg/injection, schedule: Q04DX003 (ip), vehicle: saline with Tween-80): 0 of 6; survivor count [1]: 0 of 6

**Q.** For O=c1scc(-c2ccc([N+](=O)[O-])cc2)s1, which survivor count (dose: 100.0 mg/kg/injection, schedule: Q04DX002 (ip), vehicle: Klucel (hydroxypropylcellulose) (HPC)) is on record?
**A.** Its survivor count is 0 of 3.

**Q.** What about the survivor count (dose: 200.0 mg/kg/injection, schedule: Q04DX002 (ip), vehicle: Klucel (hydroxypropylcellulose) (HPC)) of the same molecule?
**A.** Its survivor count is 0 of 3.

**Q.** And the survivor count (dose: 400.0 mg/kg/injection, schedule: Q04DX002 (ip), vehicle: Klucel (hydroxypropylcellulose) (HPC))?
**A.** The survivor count was 0 of 3.

**Q.** CSc1ccc(NC(=O)NS(=O)(=O)c2ccc(C)cc2)cc1 was tested. Which survivor count (dose: 400.0 mg/kg/injection, schedule: Q01DX009 (ip), vehicle: saline with Tween-80) did it give?
**A.** The survivor count was 6 of 6.

**Q.** Which results are given for N#CCC(C#N)N1CCCCC1 (stereo unspecified)?
**A.** survivor count (dose: 3.12 mg/kg/injection, schedule: Q01DX009 (ip), vehicle: other): 6 of 6; survivor count (dose: 6.25 mg/kg/injection, schedule: Q01DX009 (ip), vehicle: other): 6 of 6; survivor count (dose: 12.5 mg/kg/injection, schedule: Q01DX009 (ip), vehicle: other): 6 of 6; survivor count (dose: 25.0 mg/kg/injection, schedule: Q01DX001 (ip), vehicle: other): 2 of 6; survivor count (dose: 50.0 mg/kg/injection, schedule: Q01DX001 (ip), vehicle: other): 0 of 6

**Q.** How did the survivor count (dose: 50.0 mg/kg/injection, schedule: Q01DX001 (ip), vehicle: saline) turn out when CC(=O)NC(C(C)=O)C(C)=O.CC(=O)NC(C(C)=O)C(C)=O.[Cu] was run?
**A.** Its survivor count is 2 of 6.

**Q.** And the survivor count (dose: 100.0 mg/kg/injection, schedule: Q01DX001 (ip), vehicle: saline)?
**A.** Its survivor count is 0 of 6.

**Q.** What about the survivor count [2] of the same molecule?
**A.** Its survivor count is 0 of 6.

**Q.** And the survivor count [3]?
**A.** The survivor count was 0 of 6.

**Q.** For O=C(C=C(C(F)(F)F)C(F)(F)F)c1ccc(Cl)cc1, which survivor count (dose: 50.0 mg/kg/injection, schedule: Q01DX009 (ip), vehicle: saline with Tween-80) is on record?
**A.** Its survivor count is 1 of 6.

**Q.** What about the survivor count [4] of the same molecule?
**A.** Its survivor count is 0 of 6.

**Q.** And the survivor count [5]?
**A.** The survivor count was 0 of 6.

**Q.** And the survivor count [1]?
**A.** Its survivor count is 0 of 6.

**Q.** Which results are given for COc1cc(N(CCCl)CCCl)c(OC)cc1/C=N/NC(=O)CC(N)C(=O)O (stereo unspecified)?
**A.** T/C (dose: 18.75 mg/kg/injection, schedule: Q01DX009 (ip), vehicle: saline): 143 % of control; T/C [6]: 127 % of control; T/C [7]: 129 % of control; T/C (dose: 200.0 mg/kg/injection, schedule: Q01DX009 (ip), vehicle: other): 128 % of control [5 of 6 alive]; T/C [8]: 128 % of control; T/C [9]: 138 % of control; survivor count (dose: 400.0 mg/kg/injection, schedule: Q01DX009 (ip), vehicle: other): 0 of 6

**Q.** With Cc1ncc(CCl)c2c1OC(C)(C)OC2 as the molecule, how does the survivor count [8] read?
**A.** Its survivor count is 0 of 6.

**Q.** What about the survivor count [3] of the same molecule?
**A.** The survivor count was 1 of 4.

**Q.** Which survivor count [8] does the source give for FC(F)(F)S.[Ag] here?
**A.** Its survivor count is 2 of 6.

**Q.** Which survivor count (dose: 100.0 mg/kg/injection, schedule: Q04DX002 (ip), vehicle: saline with Tween-80) does the source give for CP1(=S)CCC(O)(c2ccccc2)CC1 (stereo unspecified) here?
**A.** The survivor count was 3 of 3.

**Q.** And the survivor count (dose: 200.0 mg/kg/injection, schedule: Q04DX002 (ip), vehicle: saline with Tween-80)?
**A.** Its survivor count is 3 of 3.

**Q.** CCCCCCN(CCCCCC)CC(=O)NCCCN1CCN(CCCNC(=O)CN(CCCCCC)CCCCCC)CC1 was tested. Which T/C (dose: 50.0 mg/kg/injection, schedule: Q01DX001 (ip), vehicle: carboxymethylcellulose (CMC)) did it give?
**A.** Its T/C is 127 % of control.

**Q.** And the survivor count (dose: 75.0 mg/kg/injection, schedule: Q01DX001 (ip), vehicle: carboxymethylcellulose (CMC))?
**A.** The survivor count was 1 of 6 and 2 of 4.

**Q.** And the survivor count (dose: 100.0 mg/kg/injection, schedule: Q01DX001 (ip), vehicle: carboxymethylcellulose (CMC))?
**A.** Its survivor count is 0 of 4.

**Q.** And the survivor count [7]?
**A.** Its survivor count is 0 of 4.

**Q.** And the survivor count [9]?
**A.** Its survivor count is 0 of 4.

**Q.** For CCSc1ccc2c(c1)N(CCCN1CCN(C)CC1)c1ccccc1S2, which T/C (dose: 50.0 mg/kg/injection, schedule: Q04DX003 (ip), vehicle: saline) is on record?
**A.** The T/C was 146 % of control.

**Q.** What about the survivor count (dose: 100.0 mg/kg/injection, schedule: Q01DX009 (ip), vehicle: saline) of the same molecule?
**A.** Its survivor count is 2 of 6.

**Q.** And the survivor count (dose: 100.0 mg/kg/injection, schedule: Q04DX003 (ip), vehicle: saline)?
**A.** Its survivor count is 5 of 6.

**Q.** And the survivor count (dose: 200.0 mg/kg/injection, schedule: Q01DX009 (ip), vehicle: saline)?
**A.** The survivor count was 0 of 6.

**Q.** And the survivor count [10]?
**A.** The survivor count was 0 of 6 and 2 of 7.

**Q.** And the survivor count (dose: 400.0 mg/kg/injection, schedule: Q01DX009 (ip), vehicle: saline)?
**A.** The survivor count was 0 of 6.

**Q.** What about the survivor count [11] of the same molecule?
**A.** The survivor count was 0 of 6 and 2 of 7.

**Q.** With Brc1cnc[nH]1 as the molecule, how does the survivor count (dose: 200.0 mg/kg/injection, schedule: Q01DX009 (ip), vehicle: water) read?
**A.** Its survivor count is 6 of 6.

**Q.** For Cc1cc(O)c2c(c1O)C(=O)C13C(=C2O)C(=O)C2C(O)C1C1C(O)C3C(=O)C3=C(O)c4c(O)cc(C)c(O)c4C(=O)C321 (stereo unspecified), which survivor count (dose: 50.0 mg/kg/injection, schedule: Q04DX003 (ip), vehicle: saline with Tween-80) is on record?
**A.** Its survivor count is 6 of 6.

**Q.** CC1CNC2C(C)C3C(CC4C5CCC6CC(N=Cc7ccccc7)C(O)CC6(C)C5CCC43C)OC2(O)C1 (stereo unspecified) was tested. Which survivor count [12] did it give?
**A.** The survivor count was 3 of 3.

**Q.** Which survivor count [6] does the source give for N#CSCc1cc([N+](=O)[O-])c(CSC#N)c([N+](=O)[O-])c1Cl here?
**A.** The survivor count was 2 of 6.

**Q.** And the survivor count (dose: 100.0 mg/kg/injection, schedule: Q01DX009 (ip), vehicle: other)?
**A.** Its survivor count is 3 of 6.

**Q.** And the survivor count (dose: 400.0 mg/kg/injection, schedule: Q04DX003 (ip), vehicle: carboxymethylcellulose (CMC))?
**A.** Its survivor count is 4 of 6.

**Q.** What does the source list for CC1(C)N=C(N)N=C(N)N1c1ccc(CCCC(=O)Nc2cccc(S(=O)(=O)F)c2)cc1?
**A.** survivor count [2]: 1 of 6; survivor count [3]: 1 of 6 and 2 of 6

**Q.** For Cc1cc(N(CCOS(C)(=O)=O)CCOS(C)(=O)=O)ccc1C=Nc1ccc(C(=O)O)cc1, which T/C (dose: 10.0 mg/kg/injection, schedule: Q04DX003 (ip), vehicle: Klucel (hydroxypropylcellulose) (HPC)) is on record?
**A.** The T/C was 129 % of control.

**Q.** And the survivor count [13]?
**A.** Its survivor count is 6 of 6.

**Q.** And the survivor count (dose: 100.0 mg/kg/injection, schedule: Q04DX003 (ip), vehicle: Klucel (hydroxypropylcellulose) (HPC))?
**A.** Its survivor count is 5 of 6.

**Q.** And the survivor count (dose: 200.0 mg/kg/injection, schedule: Q04DX003 (ip), vehicle: Klucel (hydroxypropylcellulose) (HPC))?
**A.** Its survivor count is 5 of 6.

**Q.** What about the survivor count [14] of the same molecule?
**A.** Its survivor count is 2 of 6.

**Q.** Which results are given for CCN1CC1?
**A.** survivor count (dose: 25.0 mg/kg/injection, schedule: Q01DX009 (ip), vehicle: Klucel (hydroxypropylcellulose) (HPC)): 1 of 6; survivor count (dose: 35.0 mg/kg/injection, schedule: Q04DX003 (ip), vehicle: Klucel (hydroxypropylcellulose) (HPC)): 4 of 6; survivor count (dose: 55.0 mg/kg/injection, schedule: Q04DX003 (ip), vehicle: Klucel (hydroxypropylcellulose) (HPC)): 6 of 6; survivor count [13]: 0 of 6; survivor count (dose: 100.0 mg/kg/injection, schedule: Q01DX001 (ip), vehicle: Klucel (hydroxypropylcellulose) (HPC)): 0 of 6; survivor count [12]: 0 of 6; survivor count [15]: 0 of 6

**Q.** What does the source list for Cc1nc(C[N+](C)(C)C)c2cnccn12?
**A.** survivor count [10]: 5 of 6; survivor count [11]: 0 of 6

**Q.** N#CCCN(C(=O)COc1ccc(Cl)cc1Cl)C1CCCCC1 was tested. Which survivor count [14] did it give?
**A.** The survivor count was 6 of 6.

**Q.** What does the source list for Cc1c(Cl)cccc1NC(=O)Oc1ccccc1Cc1ccccc1?
**A.** T/C [4]: 87, 89, 91, 93 % of control; T/C [5]: 90, 91, 94 % of control; survivor count [5]: 6 of 6

**Q.** Which results are given for ONC12CC3CC(CC(C3)C1)C2?
**A.** survivor count [12]: 3 of 6; survivor count [15]: 0 of 6

**Q.** How did the survivor count [9] turn out when CC12CC3CC(C)(C1)CC(O)(C3)C2 was run?
**A.** Its survivor count is 2 of 4.

**Q.** With FC(F)(F)c1nc[nH]c1C(F)(F)F as the molecule, how does the survivor count (dose: 50.0 mg/kg/injection, schedule: Q01DX009 (ip), vehicle: water) read?
**A.** Its survivor count is 0 of 6.

**Q.** For CC(=O)N(N=O)c1c(C)cccc1C, which survivor count [2] is on record?
**A.** Its survivor count is 1 of 4.

**Q.** What about the survivor count [3] of the same molecule?
**A.** The survivor count was 0 of 4.
